{"source": "PubChem BioAssay AID1458", "about": "(National Center for Advancing Translational Sciences (NCATS), 2008)", "note": "Screen size: about 210,000 compounds; about 5,900 (2.8%) were called active. Another 5% or so got no clear call; they are omitted. Calls follow the shape of the dose curve; as a rule, active = well fitted activation curve with a large enough effect; inconclusive = small, poorly fitted or top-dose-only effect; inactive = no such curve, though single readings can be large or run the other way. This is a selection; strong and weak results do not stand in their true shares. The source gives no active or inactive call for entries shown without one. Potency is read from the fitted curve at half-maximal effect.", "data": [{"experiment": "qHTS Assay for Enhancers of SMN2 Splice Variant Expression; also: nearly all actives have a fitted effect of over 55% in size; as to activity change, positive = activation: % of control where 0% means no effect", "details": "HEK293 SMN2-luciferase splicing reporter, luminescence, 30-36 h; activity change, positive = activation: at 46.1 µM (top of the series) unless noted", "in_short": "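HEK293 cells carry an SMN2 […]–luciferase reporter in which exon 7 inclusion puts luciferase in frame. Cells were plated 10-12 h before compound addition, then incubated 30-36 h at 37C. ONE-Glo luminescence was read; sodium butyrate at 4.5 mM final served as control.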", "values": [{"smiles": "CCn1c(=O)n(CC)c2cc(S(=O)(=O)N3CCOCC3)ccc21", "activity change, positive = activation": "33.6%"}, {"smiles": "O=C(Nc1ccc2c(c1)OCO2)Nc1ccccn1", "activity change, positive = activation": "180%"}, {"smiles": "NC(=O)CSc1oc(-c2cccs2)nc1S(=O)(=O)c1ccc(Br)cc1", "activity change, positive = activation": "50.5%"}, {"smiles": "O=C(N/N=C/c1ccc2c(c1)OCO2)c1ccc(Cn2cc([N+](=O)[O-])cn2)o1", "activity change, positive = activation": "8.08%"}, {"smiles": "O=S(=O)(NCC1CCCO1)c1ccc(Oc2ccccc2)cc1", "note": "(stereo unspecified)", "activity change, positive = activation": "-39.2%"}, {"smiles": "Cc1ccc(NC(=S)NC(=O)c2ccc(-c3ccccc3)cc2)c(C)c1", "activity change, positive = activation": "inactive: -42.6%"}, {"smiles": "COc1ccc(/C=C/C(=O)c2ccc3c4c(cccc24)CC3)cc1OC", "activity change, positive = activation": "-64.8%"}, {"smiles": "C=CCOc1ccc(C(=O)NC2CCCCC2)cc1", "activity change, positive = activation": "69.5%"}, {"smiles": "Cc1ccc(S(=O)(=O)N2CCCC2C(=O)OCc2ccco2)cc1", "note": "(stereo unspecified)", "activity change, positive = activation": "80.1%"}, {"smiles": "C/C(=N\\Nc1nc2ccccc2s1)c1cccs1", "activity change, positive = activation": "-68.3%"}, {"smiles": "Cc1ccc(NC(=O)c2scc3c2CCCC3)cc1", "Potency": "active: 1.41 µM"}, {"smiles": "Cc1ccc(S(=O)(=O)NC(=O)Nc2ccccc2F)cc1", "activity change, positive = activation": "57.9%"}, {"smiles": "O=C(O)CCc1nn2c3ccccc3nc2n(Cc2ccccc2)c1=O", "activity change, positive = activation": "inactive: -21.5%"}, {"smiles": "COc1ccc(OCC(=O)Nc2cccc(OC)c2)cc1", "activity change, positive = activation": "31.1%"}, {"smiles": "Cc1cc(NCc2ccco2)nc2cc(O)ccc12", "activity change, positive = activation": "45.7%"}, {"smiles": "Cc1cc(NC(=O)c2ccccc2)sc1C", "Potency": "active: 11.2 µM"}, {"smiles": "COc1ccc(-c2csc(NC(=O)COC(=O)c3ccco3)n2)cc1", "Potency": "active: 12.6 µM"}, {"smiles": "COc1ccc(-c2c[n+]3c(n2-c2ccccc2)CCCCC3)cc1", "activity change, positive = activation": "inactive: -57.9%"}, {"smiles": "O=C(OCC#CCSc1nnc(-c2ccc(Br)cc2)o1)c1cccs1", "activity change, positive = activation": "inactive: -44.8%"}, {"smiles": "CN(C)/N=N\\c1nc[nH]c1C(N)=O", "activity change, positive = activation": "inactive: -15.7% [at 20.6 µM]"}, {"smiles": "Cc1cc(C(=O)CSc2nnnn2-c2ccc(O)cc2)c(C)n1Cc1ccc2c(c1)OCO2", "activity change, positive = activation": "inactive: -38.1%"}, {"smiles": "COc1cccc(NC(=O)/C=C/c2ccccc2[N+](=O)[O-])c1", "Potency": "active: 3.16 µM"}, {"smiles": "CCCCC1=CC2=CC(=O)C(C)(OC(=O)CC)C(=O)C2=CN1CCN1CCOCC1", "note": "(stereo unspecified)", "activity change, positive = activation": "33.3% [at 9.22 µM]"}, {"smiles": "Cc1cc(C(=O)Nc2ccc(C(=O)O)cc2)c(-c2ccccc2)o1", "activity change, positive = activation": "43.6%"}, {"smiles": "Cc1ccc(C)c(-c2ccc(=O)n(Cc3c(F)cccc3Cl)n2)c1", "activity change, positive = activation": "-77.6%"}, {"smiles": "O=c1c(-c2ccccc2)c[nH]n1-c1cccc([N+](=O)[O-])c1", "activity change, positive = activation": "145%"}, {"smiles": "Fc1ccc(C2=Nn3c(nnc3-c3n[nH]c4c3CCC4)SC2)cc1", "Potency": "active: 20 µM"}, {"smiles": "CC(C)N1C(=O)CCC1C(=O)NCc1ccco1", "note": "(stereo unspecified)", "activity change, positive = activation": "-9.8%"}, {"smiles": "CC(=O)Nc1cccc(-c2csc(Nc3ccc(Cl)cn3)n2)c1", "Potency": "active: 11.2 µM"}, {"smiles": "CCn1c(=NC(=O)c2ccco2)sc2cccc(F)c21", "Potency": "active: 15.8 µM"}, {"smiles": "Cc1ccc2oc(-c3cccc(NC(=O)/C=C/c4cccc([N+](=O)[O-])c4)c3C)nc2c1", "Potency": "active: 12.6 µM"}]}]}
